Test results reported in patent publication US11731947B2, “Deuterated antimicrobial compounds” (priority 2019, dated 2023).
Some entries share one result that the patent states for a list of compounds.

System: H37RV cells
Assay: antituberculosis activity in whole cell assays
Assay type: cell-based, Mycobacterium tuberculosis

C[C@H]1COC2(CCN(c3nc(=O)c4cc(C(F)(F)F)cc([N+](=O)[O-])c4s3)CC2)O1 [BTZ043]
antituberculosis activity in whole cell assays (GAS media): 0.02 to 0.03 µM
antituberculosis activity in whole cell assays (MABA media): < 0.004 µM
